PubChem BioAssay AID1259405 | NCATS – 2018

Test: 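Knock-downs that lift recombinant protein yield in hamster ovary cells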 (primary screen)
Cells: Chinese hamster CHO-K1 ovary cells with stable secreted eGFP expression
Reagent: single siRNA against mouse genes, 0.8 pmol siRNA per well (2 µl of 400 nM stock)
Duration: 3 days
Detection: 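Percent of the per-plate non-targeting control median for intracellular GFP per well by laser scanning cytometry and for cell viability by ATP luminescence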
Reading the numbers: GFP, % of control: higher = more GFP per well, higher productivity; viability (ATP), % of control: higher = more viable cells (more ATP)
Hit rule: 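Called active when intracellular GFP, relative to negative control, is at or above 120%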
Here is a random part of about 50,000 deposited reagents. Of all reagents, about 4,000 (8%) were called active. 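Mouse siRNA library applied to hamster cells; one well for each siRNA.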 Reagents against one gene are numbered here.

gene symbol,reagent,"GFP, % of control","viability (ATP), % of control",outcome
Fgd6,1,76.1,61.5,inactive
Fgd6,2,64.9,76.6,inactive
Fgd6,3,47.4,53.6,inactive
Mob4,1,84.5,81.6,inactive
Mob4,2,106,98,inactive
Hspa4,1,112,64.8,inactive
Hspa4,2,78.5,61.6,inactive
Hspa4,3,130,110,active
Glycam1,1,62.9,70.1,inactive
Glycam1,2,44.6,43,inactive
Glycam1,3,90.2,86,inactive
Barhl2,1,91.5,75.2,inactive
Barhl2,2,90,88.2,inactive
Barhl2,3,59.3,73.1,inactive
Krtcap2,1,44.6,61.9,inactive
Krtcap2,2,118,85.2,inactive
Krtcap2,3,115,61.2,inactive
Sumf1,1,95.7,96.5,inactive
Sumf1,2,136,137,active
Sumf1,3,103,78.4,inactive
Xdh,1,80.5,129,inactive
Xdh,2,109,70.1,inactive
Xdh,3,61.6,59.6,inactive
Pdyn,1,77,65.8,inactive
Pdyn,2,84.4,71.6,inactive
Pdyn,3,43.9,73.2,inactive
Ear10,1,95.5,87.5,inactive
Ear10,2,78.1,100,inactive
Ear10,3,54.4,45.7,inactive
Inhbc,1,24.5,34.2,inactive
Inhbc,2,54.8,71.3,inactive
Inhbc,3,56.6,68.2,inactive
Fmo9,1,38.4,23,inactive
Fmo9,2,61.7,48.3,inactive
Fmo9,3,102,91.9,inactive

Entries listed above with an active call:
gene symbol,reagent,"GFP, % of control","viability (ATP), % of control",outcome
Hspa4,3,130,110,active
Sumf1,2,136,137,active
